Data from the supplement of paper PMC10032668.
This is one part of the list. Only hits are listed; about a third recur on repeated control peptides.

Amino acid sequences for entries named in this document (tags omitted).
EIF3H, O15372, UniProt O15372, whole entry: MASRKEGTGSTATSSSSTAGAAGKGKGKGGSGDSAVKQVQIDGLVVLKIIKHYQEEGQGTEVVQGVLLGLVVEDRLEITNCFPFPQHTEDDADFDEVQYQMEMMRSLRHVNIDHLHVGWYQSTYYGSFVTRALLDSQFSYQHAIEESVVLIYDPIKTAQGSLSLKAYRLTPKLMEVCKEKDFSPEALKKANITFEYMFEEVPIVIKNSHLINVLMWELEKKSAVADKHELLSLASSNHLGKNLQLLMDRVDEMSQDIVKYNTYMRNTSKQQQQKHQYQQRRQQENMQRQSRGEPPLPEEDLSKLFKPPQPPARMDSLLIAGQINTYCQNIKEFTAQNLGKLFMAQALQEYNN
EIF2S1, P05198, UniProt P05198, whole entry: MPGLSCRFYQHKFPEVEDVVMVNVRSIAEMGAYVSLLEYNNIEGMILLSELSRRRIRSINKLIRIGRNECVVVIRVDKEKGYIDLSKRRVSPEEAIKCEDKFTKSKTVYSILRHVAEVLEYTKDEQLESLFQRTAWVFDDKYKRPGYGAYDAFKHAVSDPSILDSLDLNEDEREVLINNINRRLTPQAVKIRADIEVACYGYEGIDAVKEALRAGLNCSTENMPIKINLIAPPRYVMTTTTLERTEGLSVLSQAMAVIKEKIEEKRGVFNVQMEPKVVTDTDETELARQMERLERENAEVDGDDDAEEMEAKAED
GNL1, P36915, UniProt P36915, whole entry: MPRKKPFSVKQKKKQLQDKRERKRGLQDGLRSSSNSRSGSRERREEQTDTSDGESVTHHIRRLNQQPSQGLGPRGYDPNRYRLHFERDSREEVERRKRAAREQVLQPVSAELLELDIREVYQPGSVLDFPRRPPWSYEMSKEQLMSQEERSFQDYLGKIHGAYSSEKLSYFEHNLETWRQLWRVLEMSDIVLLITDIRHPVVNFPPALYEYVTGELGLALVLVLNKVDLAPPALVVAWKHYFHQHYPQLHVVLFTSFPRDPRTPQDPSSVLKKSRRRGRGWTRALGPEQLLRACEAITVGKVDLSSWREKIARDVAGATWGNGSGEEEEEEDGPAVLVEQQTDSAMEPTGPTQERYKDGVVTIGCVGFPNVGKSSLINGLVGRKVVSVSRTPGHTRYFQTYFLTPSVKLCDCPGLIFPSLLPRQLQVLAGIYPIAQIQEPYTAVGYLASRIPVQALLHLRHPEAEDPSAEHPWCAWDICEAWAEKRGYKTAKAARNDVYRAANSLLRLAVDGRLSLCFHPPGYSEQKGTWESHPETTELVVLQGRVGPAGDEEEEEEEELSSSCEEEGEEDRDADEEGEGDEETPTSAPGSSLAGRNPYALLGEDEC
HUWE1, Q7Z6Z7, UniProt Q7Z6Z7, whole entry: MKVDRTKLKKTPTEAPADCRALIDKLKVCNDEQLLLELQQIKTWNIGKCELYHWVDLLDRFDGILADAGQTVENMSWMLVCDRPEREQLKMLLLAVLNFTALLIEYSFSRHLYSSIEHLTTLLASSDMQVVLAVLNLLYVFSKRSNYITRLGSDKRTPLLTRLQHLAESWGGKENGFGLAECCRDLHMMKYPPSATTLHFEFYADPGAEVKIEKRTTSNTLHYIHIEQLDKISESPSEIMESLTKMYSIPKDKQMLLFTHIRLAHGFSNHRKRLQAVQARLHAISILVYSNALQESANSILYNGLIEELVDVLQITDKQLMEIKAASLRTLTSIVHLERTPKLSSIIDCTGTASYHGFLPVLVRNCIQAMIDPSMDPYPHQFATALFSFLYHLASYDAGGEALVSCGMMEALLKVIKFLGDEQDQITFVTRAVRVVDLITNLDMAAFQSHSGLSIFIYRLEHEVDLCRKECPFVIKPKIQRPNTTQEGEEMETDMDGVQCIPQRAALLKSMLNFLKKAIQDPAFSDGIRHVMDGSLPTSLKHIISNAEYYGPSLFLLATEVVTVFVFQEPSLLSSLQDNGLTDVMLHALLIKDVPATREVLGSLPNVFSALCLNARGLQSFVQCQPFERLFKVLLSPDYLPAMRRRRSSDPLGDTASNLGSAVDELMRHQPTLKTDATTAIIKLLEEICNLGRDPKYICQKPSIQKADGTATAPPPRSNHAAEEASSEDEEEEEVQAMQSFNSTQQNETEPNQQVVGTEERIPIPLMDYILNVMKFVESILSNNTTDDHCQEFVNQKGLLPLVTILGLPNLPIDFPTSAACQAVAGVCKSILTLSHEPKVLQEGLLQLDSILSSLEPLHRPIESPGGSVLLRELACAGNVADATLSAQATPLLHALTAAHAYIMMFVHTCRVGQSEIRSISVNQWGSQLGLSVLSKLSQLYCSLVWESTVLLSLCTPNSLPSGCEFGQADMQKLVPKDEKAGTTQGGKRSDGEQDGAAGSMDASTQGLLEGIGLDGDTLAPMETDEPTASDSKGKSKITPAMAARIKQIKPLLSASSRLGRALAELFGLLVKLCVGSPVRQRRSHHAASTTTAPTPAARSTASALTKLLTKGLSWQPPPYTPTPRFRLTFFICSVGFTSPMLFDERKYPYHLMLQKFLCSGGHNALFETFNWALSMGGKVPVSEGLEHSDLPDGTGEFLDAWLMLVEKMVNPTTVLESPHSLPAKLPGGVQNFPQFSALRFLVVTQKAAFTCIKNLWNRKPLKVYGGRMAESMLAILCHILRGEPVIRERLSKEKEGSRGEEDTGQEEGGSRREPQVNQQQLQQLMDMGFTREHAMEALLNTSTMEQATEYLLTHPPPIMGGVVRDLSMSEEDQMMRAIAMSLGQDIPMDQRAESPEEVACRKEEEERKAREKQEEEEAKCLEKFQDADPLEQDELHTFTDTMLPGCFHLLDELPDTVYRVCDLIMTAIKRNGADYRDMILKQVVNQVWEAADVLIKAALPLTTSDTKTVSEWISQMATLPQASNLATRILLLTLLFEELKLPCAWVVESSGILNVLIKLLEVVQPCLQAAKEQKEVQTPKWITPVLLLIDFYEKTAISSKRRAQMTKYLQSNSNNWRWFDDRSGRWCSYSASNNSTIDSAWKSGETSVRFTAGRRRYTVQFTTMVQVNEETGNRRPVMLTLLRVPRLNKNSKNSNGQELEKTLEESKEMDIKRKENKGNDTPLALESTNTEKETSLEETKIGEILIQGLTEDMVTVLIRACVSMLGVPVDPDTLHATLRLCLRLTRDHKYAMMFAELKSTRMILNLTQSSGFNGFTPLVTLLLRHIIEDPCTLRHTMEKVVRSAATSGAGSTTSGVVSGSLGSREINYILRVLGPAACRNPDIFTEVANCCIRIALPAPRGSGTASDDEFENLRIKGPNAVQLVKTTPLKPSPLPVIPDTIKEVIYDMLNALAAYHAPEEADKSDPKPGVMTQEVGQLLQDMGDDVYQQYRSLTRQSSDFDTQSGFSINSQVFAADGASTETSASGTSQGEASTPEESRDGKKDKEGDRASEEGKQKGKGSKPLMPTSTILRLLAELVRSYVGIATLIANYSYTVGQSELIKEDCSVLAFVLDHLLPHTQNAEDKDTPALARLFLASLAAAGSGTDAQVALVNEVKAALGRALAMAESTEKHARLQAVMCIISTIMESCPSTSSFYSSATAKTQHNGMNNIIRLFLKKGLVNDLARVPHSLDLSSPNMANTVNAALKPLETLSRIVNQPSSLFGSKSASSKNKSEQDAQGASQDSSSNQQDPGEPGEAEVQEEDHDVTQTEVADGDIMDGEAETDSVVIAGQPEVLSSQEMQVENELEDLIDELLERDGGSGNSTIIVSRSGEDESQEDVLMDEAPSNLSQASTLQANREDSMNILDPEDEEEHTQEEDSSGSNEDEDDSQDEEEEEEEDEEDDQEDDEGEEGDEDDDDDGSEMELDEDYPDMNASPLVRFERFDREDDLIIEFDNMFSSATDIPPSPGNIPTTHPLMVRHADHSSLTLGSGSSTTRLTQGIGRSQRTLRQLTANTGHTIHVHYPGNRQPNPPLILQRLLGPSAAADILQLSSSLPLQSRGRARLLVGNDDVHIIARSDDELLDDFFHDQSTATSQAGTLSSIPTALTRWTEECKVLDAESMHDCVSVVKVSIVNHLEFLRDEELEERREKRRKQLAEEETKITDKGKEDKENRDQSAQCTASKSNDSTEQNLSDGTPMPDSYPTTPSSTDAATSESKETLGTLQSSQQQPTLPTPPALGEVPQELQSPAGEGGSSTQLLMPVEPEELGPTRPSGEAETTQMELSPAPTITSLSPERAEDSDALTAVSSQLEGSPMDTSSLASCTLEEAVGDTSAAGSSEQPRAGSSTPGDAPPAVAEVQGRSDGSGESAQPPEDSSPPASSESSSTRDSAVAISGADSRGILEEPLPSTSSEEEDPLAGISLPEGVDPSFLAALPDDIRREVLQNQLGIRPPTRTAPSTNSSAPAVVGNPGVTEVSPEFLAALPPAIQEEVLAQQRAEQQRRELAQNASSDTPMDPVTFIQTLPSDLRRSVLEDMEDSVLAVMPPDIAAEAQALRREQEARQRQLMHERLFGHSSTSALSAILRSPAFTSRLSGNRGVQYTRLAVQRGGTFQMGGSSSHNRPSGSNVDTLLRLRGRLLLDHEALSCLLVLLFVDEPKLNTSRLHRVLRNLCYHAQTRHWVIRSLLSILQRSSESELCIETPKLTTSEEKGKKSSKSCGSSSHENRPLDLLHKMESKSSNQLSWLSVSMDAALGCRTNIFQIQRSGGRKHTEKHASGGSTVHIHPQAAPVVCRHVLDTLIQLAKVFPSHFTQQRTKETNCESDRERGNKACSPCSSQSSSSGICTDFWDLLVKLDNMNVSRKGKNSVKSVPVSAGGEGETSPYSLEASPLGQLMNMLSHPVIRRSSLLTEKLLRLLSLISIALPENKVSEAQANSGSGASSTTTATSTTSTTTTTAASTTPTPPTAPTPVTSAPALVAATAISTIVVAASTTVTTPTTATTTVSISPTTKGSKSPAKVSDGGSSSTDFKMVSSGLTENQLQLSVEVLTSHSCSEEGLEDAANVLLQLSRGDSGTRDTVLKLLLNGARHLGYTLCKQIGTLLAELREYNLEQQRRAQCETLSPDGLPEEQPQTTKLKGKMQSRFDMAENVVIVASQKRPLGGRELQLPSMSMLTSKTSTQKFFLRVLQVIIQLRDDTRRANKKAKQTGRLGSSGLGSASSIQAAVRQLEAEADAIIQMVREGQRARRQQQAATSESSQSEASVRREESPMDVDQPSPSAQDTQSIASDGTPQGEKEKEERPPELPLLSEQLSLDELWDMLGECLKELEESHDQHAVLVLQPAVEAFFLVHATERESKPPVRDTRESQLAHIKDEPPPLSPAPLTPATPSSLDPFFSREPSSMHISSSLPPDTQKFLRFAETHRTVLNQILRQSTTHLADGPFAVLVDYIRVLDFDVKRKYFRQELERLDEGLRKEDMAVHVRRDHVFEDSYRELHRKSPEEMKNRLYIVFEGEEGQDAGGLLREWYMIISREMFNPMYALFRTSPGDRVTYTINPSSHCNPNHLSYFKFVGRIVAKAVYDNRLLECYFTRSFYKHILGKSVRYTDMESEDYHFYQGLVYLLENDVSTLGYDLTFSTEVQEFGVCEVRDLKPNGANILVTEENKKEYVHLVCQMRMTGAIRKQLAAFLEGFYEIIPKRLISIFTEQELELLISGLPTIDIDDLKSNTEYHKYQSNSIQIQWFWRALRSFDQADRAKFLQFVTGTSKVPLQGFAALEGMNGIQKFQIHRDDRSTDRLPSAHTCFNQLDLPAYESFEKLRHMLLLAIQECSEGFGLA
RBM25, P49756, UniProt P49756, whole entry: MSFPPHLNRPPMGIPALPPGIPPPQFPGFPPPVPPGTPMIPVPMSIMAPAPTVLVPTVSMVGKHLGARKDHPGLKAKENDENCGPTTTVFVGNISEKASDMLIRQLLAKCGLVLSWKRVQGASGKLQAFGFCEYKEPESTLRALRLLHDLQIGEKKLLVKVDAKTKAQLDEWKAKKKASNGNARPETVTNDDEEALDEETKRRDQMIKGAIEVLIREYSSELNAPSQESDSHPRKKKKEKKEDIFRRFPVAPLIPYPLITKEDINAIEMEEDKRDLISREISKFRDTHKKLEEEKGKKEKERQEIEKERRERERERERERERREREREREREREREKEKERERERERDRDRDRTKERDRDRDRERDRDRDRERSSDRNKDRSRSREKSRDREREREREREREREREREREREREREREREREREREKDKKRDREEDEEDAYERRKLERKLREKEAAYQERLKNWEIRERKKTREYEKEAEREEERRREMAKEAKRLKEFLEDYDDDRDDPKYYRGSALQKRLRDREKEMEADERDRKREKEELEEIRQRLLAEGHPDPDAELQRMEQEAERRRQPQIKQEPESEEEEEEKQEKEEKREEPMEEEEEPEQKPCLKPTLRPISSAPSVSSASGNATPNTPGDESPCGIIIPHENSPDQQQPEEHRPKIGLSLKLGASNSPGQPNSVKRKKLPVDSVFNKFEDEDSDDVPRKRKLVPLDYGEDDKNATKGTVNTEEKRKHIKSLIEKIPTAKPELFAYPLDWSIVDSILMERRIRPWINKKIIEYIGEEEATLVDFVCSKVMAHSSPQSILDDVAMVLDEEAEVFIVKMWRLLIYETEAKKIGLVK

Tests used:
Test in all cases: PRISMA enrichment of interactor (LFQ) in peptide spot vs all other peptide spots (log2 fold change); higher = stronger / more specific binding of the interactor to the peptide
AEBP2, Q6ZN18 = target: AEBP2, Q6ZN18
Method: (§1)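 PRISMA: 15-aa overlapping tiles (offset 8 aa) of 60 microproteins, plus SOS1/GLUT1 control peptides, were spot-synthesized on cellulose membranes in triplicate. Membranes were incubated with benzonase-treated HEK293T lysate, and bound proteins were identified by LC-MS/MS with LFQ. Enrichment is the log2 fold change of each protein in one spot versus all other spots. Only interactors passing the significance cutoff are listed.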

ATP2A2, P16615 = target: ATP2A2, P16615
Method: as §1

BTF3L4, Q96K17 = target: BTF3L4, Q96K17
Method: as §1

CGGBP1, Q9UFW8 = target: CGGBP1, Q9UFW8
Method: as §1

CHMP1A, Q9HD42 = target: CHMP1A, Q9HD42
Method: as §1

COPA, P53621 = target: COPA, P53621
Method: as §1

CTNND1, O60716 = target: CTNND1, O60716
Method: as §1

EIF3H, O15372 = target: EIF3H, O15372
Method: as §1

HLA-B = target: HLA-B
Method: as §1

HTATSF1, O43719 = target: HTATSF1, O43719
Method: as §1

MAP7D3, Q8IWC1 = target: MAP7D3, Q8IWC1
Method: as §1

[1] = substrate: PC, P11498
Method: as §1

RER1, O15258 = target: RER1, O15258
Method: as §1

UQCRB, P14927 = target: UQCRB, P14927
Method: as §1

AFDN, P55196 = target: AFDN, P55196
Method: as §1

CCDC137, Q6PK04 = target: CCDC137, Q6PK04
Method: as §1

CISD1, Q9NZ45 = target: CISD1, Q9NZ45
Method: as §1

CLNS1A, P54105 = target: CLNS1A, P54105
Method: as §1

COPS4, Q9BT78 = target: COPS4, Q9BT78
Method: as §1

DHX40, Q8IX18 = target: DHX40, Q8IX18
Method: as §1

DRG1, Q9Y295 = target: DRG1, Q9Y295
Method: as §1

EBNA1BP2, Q99848 = target: EBNA1BP2, Q99848
Method: as §1

EIF2S1, P05198 = target: EIF2S1, P05198
Method: as §1

EIF5B, O60841 = target: EIF5B, O60841
Method: as §1

FGA, P02671 = target: FGA, P02671
Method: as §1

GNL1, P36915 = target: GNL1, P36915
Method: as §1

HUWE1, Q7Z6Z7 = target: HUWE1, Q7Z6Z7
Method: as §1

LRRC40, Q9H9A6 = target: LRRC40, Q9H9A6
Method: as §1

LSM14B, Q9BX40 = target: LSM14B, Q9BX40
Method: as §1

MAGT1, Q9H0U3 = target: MAGT1, Q9H0U3
Method: as §1

MAP4, P27816 = target: MAP4, P27816
Method: as §1

MAP7D1, Q3KQU3 = target: MAP7D1, Q3KQU3
Method: as §1

MRTO4, Q9UKD2 = target: MRTO4, Q9UKD2
Method: as §1

NAMPT, P43490 = target: NAMPT, P43490
Method: as §1

NKRF, O15226 = target: NKRF, O15226
Method: as §1

NOL6, Q9H6R4 = target: NOL6, Q9H6R4
Method: as §1

NUMA1, Q14980 = target: NUMA1, Q14980
Method: as §1

PCM1, Q15154 = target: PCM1, Q15154
Method: as §1

PDCD10, Q9BUL8 = target: PDCD10, Q9BUL8
Method: as §1

POLR2G, P62487 = target: POLR2G, P62487
Method: as §1

PSIP1, O75475 = target: PSIP1, O75475
Method: as §1

RBM25, P49756 = target: RBM25, P49756
Method: as §1

SF3A3, Q12874 = target: SF3A3, Q12874
Method: as §1

SH3GLB1, Q9Y371 = target: SH3GLB1, Q9Y371
Method: as §1

SPTY2D1, Q68D10 = target: SPTY2D1, Q68D10
Method: as §1

TCAF1, Q9Y4C2 = target: TCAF1, Q9Y4C2
Method: as §1

VPS25, Q9BRG1 = target: VPS25, Q9BRG1
Method: as §1

TCECFSASVCGQRLS [NAV2-AS2_2]
PRISMA enrichment of interactor (log2) (AEBP2, Q6ZN18): 3.63
PRISMA enrichment of interactor (log2) (ATP2A2, P16615): 4.34
PRISMA enrichment of interactor (log2) (BTF3L4, Q96K17): 4.31
PRISMA enrichment of interactor (log2) (CGGBP1, Q9UFW8): 4.87
PRISMA enrichment of interactor (log2) (CHMP1A, Q9HD42): 4.37
PRISMA enrichment of interactor (log2) (COPA, P53621): 6.17
PRISMA enrichment of interactor (log2) (CTNND1, O60716): 4.71
PRISMA enrichment of interactor (log2) (EIF3H, O15372): 4.14
PRISMA enrichment of interactor (log2) (HLA-B): 4.17
PRISMA enrichment of interactor (log2) (HTATSF1, O43719): 6.98
PRISMA enrichment of interactor (log2) (MAP7D3, Q8IWC1): 4.28
PRISMA enrichment of interactor (log2) [1]: 6.83
PRISMA enrichment of interactor (log2) (RER1, O15258): 4.88
PRISMA enrichment of interactor (log2) (UQCRB, P14927): 4.5

QLLRPAPGEAAAAAA [TUG1]
PRISMA enrichment of interactor (log2) (AFDN, P55196): 4.09
PRISMA enrichment of interactor (log2) (CCDC137, Q6PK04): 7.71
PRISMA enrichment of interactor (log2) (CISD1, Q9NZ45): 3.6
PRISMA enrichment of interactor (log2) (CLNS1A, P54105): 4.52
PRISMA enrichment of interactor (log2) (COPS4, Q9BT78): 9.7
PRISMA enrichment of interactor (log2) (DHX40, Q8IX18): 4.83
PRISMA enrichment of interactor (log2) (DRG1, Q9Y295): 5.99
PRISMA enrichment of interactor (log2) (EBNA1BP2, Q99848): 4.9
PRISMA enrichment of interactor (log2) (EIF2S1, P05198): 4.99
PRISMA enrichment of interactor (log2) (EIF5B, O60841): 4.29
PRISMA enrichment of interactor (log2) (FGA, P02671): 4.17
PRISMA enrichment of interactor (log2) (GNL1, P36915): 6.35
PRISMA enrichment of interactor (log2) (HUWE1, Q7Z6Z7): 4.84
PRISMA enrichment of interactor (log2) (LRRC40, Q9H9A6): 4.75
PRISMA enrichment of interactor (log2) (LSM14B, Q9BX40): 4.53
PRISMA enrichment of interactor (log2) (MAGT1, Q9H0U3): 8.41
PRISMA enrichment of interactor (log2) (MAP4, P27816): 6.12
PRISMA enrichment of interactor (log2) (MAP7D1, Q3KQU3): 7.11
PRISMA enrichment of interactor (log2) (MRTO4, Q9UKD2): 5.16
PRISMA enrichment of interactor (log2) (NAMPT, P43490): 5.06
PRISMA enrichment of interactor (log2) (NKRF, O15226): 5.37
PRISMA enrichment of interactor (log2) (NOL6, Q9H6R4): 4.54
PRISMA enrichment of interactor (log2) (NUMA1, Q14980): 5.08
PRISMA enrichment of interactor (log2) (PCM1, Q15154): 5.98
PRISMA enrichment of interactor (log2) (PDCD10, Q9BUL8): 4.63
PRISMA enrichment of interactor (log2) (POLR2G, P62487): 4.92
PRISMA enrichment of interactor (log2) (PSIP1, O75475): 5.67
PRISMA enrichment of interactor (log2) (RBM25, P49756): 7.17
PRISMA enrichment of interactor (log2) (SF3A3, Q12874): 4.53
PRISMA enrichment of interactor (log2) (SH3GLB1, Q9Y371): 3.88
PRISMA enrichment of interactor (log2) (SPTY2D1, Q68D10): 7.37
PRISMA enrichment of interactor (log2) (TCAF1, Q9Y4C2): 4.17
PRISMA enrichment of interactor (log2) (VPS25, Q9BRG1): 4.49
